PubChem BioAssay AID662 (National Center for Advancing Translational Sciences (NCATS), 2007)
The other results are listed elsewhere or left out. Shown are side measurements of this screen, not its main read-out; they come without a call. Most of these compounds were active or inconclusive in the main read-out, so they are no random draw. Potencies come from curve fits of mixed quality, noted in brackets.

Assay: Cell signaling CRE-BLA (Fsk stim)
Details: CHO CRE-bla reporter (cAMP response element driving beta-lactamase), forskolin EC10, beta-lactamase ratio; measured here: 460 nm blue channel
Procedure, shortened: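 AC50 values, positive or negative, reflect shifts in EC10 NKH 477-induced CRE-bla reporter activity in CHO cells. Incubation lasted 3 h at 37 °C before CCF4 substrate (2 h, room temperature) and ratiometric 460/530 nm reading.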

Structure (SMILES)	AC50
N#Cc1nc(-c2ccccc2F)oc1N1CCCC1	25.1 µM [rising, single point]
C=C(C)C(C)(C#CCN1CCCC1)OC(C)=O (stereo unspecified)	3.98 µM [falling, single point]
O=C(COC(=O)C1CC2C=CC1C2)NCc1ccco1 (stereo unspecified)	5.01 µM [rising, single point]
CCN(CC)S(=O)(=O)c1ccc2[nH]cc(C(=O)NCCc3ccc(OC)c(OC)c3)c(=O)c2c1	2 µM [rising, full curve]
CCOC(=O)C(CC)n1cnc2c(cnn2-c2ccc(Cl)cc2)c1=O (stereo unspecified)	12.6 µM [rising, single point]
CCCCn1c(=NC(=O)c2ccc3c(c2)OCO3)c(C#N)cc2c(=O)n3cccc(C)c3nc21	1 µM [rising, partial curve, poor fit]
c1ccc2c(c1)NC1(CCCCC1)n1c-2nc2ccccc21	0.794 µM [rising, full curve, poor fit]
COCCn1c(=O)c(-c2cccc(C#N)c2)nc2cnc(OC)nc21	12.6 µM [rising, partial curve]
COc1ccc(OC)c(NC(=O)CC(Cc2ccccc2OC)C(=O)O)c1 (stereo unspecified)	0.0398 µM [falling, full curve, poor fit]
CCOc1ccc(C2=CS/C(=C(\C#N)c3nnc4n3CCCCC4)N2CC)cc1	25.1 µM [falling, single point]
Cc1ccsc1C=Nc1ccc(O)cc1	25.1 µM [falling, single point]
Nc1cc(OC(=O)c2cccs2)nn1S(=O)(=O)c1ccccc1	0.00631 µM [falling, full curve, poor fit]
O=C(CCn1c(=S)[nH]c2ccccc2c1=O)N1CCN(c2ccccn2)CC1	12.6 µM [rising, partial curve]
CCOc1ccc(NC(=O)N2CCC(n3c(=O)[nH]c4ccccc43)CC2)cc1	12.6 µM [falling, single point]
CCOc1ccc2[nH]c(=O)c(C(c3nnnn3Cc3ccco3)N3CCCC(C)C3)cc2c1 (stereo unspecified)	15.8 µM [rising, single point]
C=CCNc1nc2c(c(=O)n(C)c(=O)n2C)n1CC	10 µM [rising, partial curve]
N#Cc1cccc(-c2nc3cnc(N4CCNCC4)nc3n(C3CC3)c2=O)c1	10 µM [rising, partial curve]
COc1cc(NC(=O)C2CCN(S(=O)(=O)c3cccnc3)CC2)cc(OC)c1OC	3.16 µM [falling, partial curve, poor fit]
CCOc1ccccc1-c1nc(-c2ccc(NC(=O)Cc3ccc(OC)cc3)cc2)no1	3.16 µM [falling, partial curve]
CCOC(=O)c1ccccc1NC(=O)c1cc(S(=O)(=O)N2CCOCC2)ccc1F	10 µM [rising, partial curve]
COc1ccc(C(=O)NCc2nnc(SCC(=O)Nc3cccc(C(F)(F)F)c3)o2)cc1OC	20 µM [rising, partial curve, poor fit]
Cc1nc2c3c(-c4ccccc4)nc(N4CCOCC4)nc3nn2c(C)c1CCC(=O)O	0.00316 µM [falling, full curve, poor fit]

Structure (SMILES)	AC50
CN(Cc1ccco1)c1ncncc1-c1ccccc1Cl	20 µM [falling, partial curve, poor fit]
COc1ccc(-n2nc3cc(C)c(NC(=O)CC(C)C)cc3n2)cc1	0.398 µM [rising, single point]
O=C(CSc1nc(Nc2ccccc2)nc(N2CCOCC2)n1)Nc1ccccc1Cl	12.6 µM [rising, single point]
CC(C)[C@@H](CC(=O)N[C@@H]1CCNC[C@H]1C(=O)N[C@H](CC(=O)N[C@@H](CCC(=O)O)CC(=O)O)Cc1c[nH]c2ccccc12)NC(=O)C[C@H](CO)NC(=O)[C@@H]1CNCC[C@H]1N	15.8 µM [falling, partial curve, poor fit]
CC1=C(C)C(=O)N(c2ccccn2)C1=O	31.6 µM [falling, partial curve]
COc1ccc(C2=NOC(C(=O)Nc3ccc(C)cc3)C2)cc1OC (stereo unspecified)	0.398 µM [falling, full curve, poor fit]
Cn1c(C(=O)N2COCC2(C)C)cc2c(=O)n3ccccc3nc21	12.6 µM [rising, partial curve]
O=C(c1ccc2c(c1)C(=O)N(Cc1ccco1)C2=O)N1CCOCC1	0.00316 µM [rising, full curve, poor fit]
CC(=O)c1ccc(N2CCCCCC2)c(F)c1	0.00316 µM [falling, full curve, poor fit]
CS(=O)(=O)N(CC(N)=O)c1ccc(F)c(Cl)c1	12.6 µM [falling, partial curve]
COc1ccc(NS(=O)(=O)c2cc(C)ccc2NC(=O)c2cc(C)oc2C)cc1	7.94 µM [rising, single point]
COC(=O)c1ccccc1NC(=O)COC(=O)CSCC(=O)N1CCOCC1	0.2 µM [falling, full curve]
Cc1ccc(Nc2nc(C(=O)N3CCC(C(=O)N4CCN(C)CC4)CC3)cs2)cc1	5.01 µM [falling, single point]
CC(C)CCNC(=O)CN(Cc1ccc2c(c1)OCO2)C(=O)Cn1nnc(-c2cccs2)n1	25.1 µM [falling, single point]
CC(=O)Cc1nsc(NC(=O)c2csc3c2CCCC3)n1	10 µM [rising, partial curve]
O=C(Nc1ccccc1F)N(CCCN1CCOCC1)Cc1cc2cc3c(cc2[nH]c1=O)OCCO3	10 µM [rising, partial curve]
COc1ccc(CNc2ncnc3ccc(-c4cccc(NS(C)(=O)=O)c4)cc23)c(OC)c1	7.94 µM [rising, partial curve]
COC(=O)CSc1nc2c(c(=O)[nH]c(=O)n2C)n1CCC(C)C	10 µM [rising, single point]
COc1nc(NC(C)(C)C)nc(Oc2ccc(=O)n(-c3ccccc3)n2)n1	12.6 µM [rising, single point]
CCOC(=O)c1c(C2COc3ccccc3O2)csc1NC(=O)c1ccco1 (stereo unspecified)	2 µM [rising, full curve]
Cc1cc(C)c2c(N)c(C(=O)Nc3nccs3)sc2n1	15.8 µM [rising, single point]
COCC(C)NC(=O)CCS(=O)(=O)c1nc(-c2ccc(OC)cc2)cc(C(F)(F)F)n1 (stereo unspecified)	2.51 µM [falling, full curve]

Two neighbouring entries already listed, quoted:
Structure (SMILES)	AC50
CCOc1ccc(C2=CS/C(=C(\C#N)c3nnc4n3CCCCC4)N2CC)cc1	25.1 µM [falling, single point]
Cc1ccsc1C=Nc1ccc(O)cc1	25.1 µM [falling, single point]

Following part

Structure (SMILES)	AC50
COc1ccc(C(O)P(=O)(O)CCc2ccccc2)cc1 (stereo unspecified)	0.00398 µM [falling, full curve, poor fit]
CC(C)(C)c1ccccc1NC(=O)c1ccco1	0.794 µM [falling, full curve]
CCC(C(=O)N1CCN(c2cccc(Cl)c2)CC1)c1ccccc1 (stereo unspecified)	10 µM [falling, partial curve]
COc1[nH]c2ccc(F)cc2c1C(=O)OCC1CCN(CCNS(C)(=O)=O)CC1	31.6 µM [falling, single point]
CC(C)(C)c1csc(N(CCC#N)CCC#N)n1	0.0631 µM [falling, full curve, poor fit]
COc1cc(OC)c(C2C3=C(CCCC3=O)Nc3nc4ccccc4n32)cc1OC (stereo unspecified)	0.0398 µM [rising, full curve, poor fit]
Cc1ccc(NC(=O)c2ccccc2O)cc1	5.01 µM [falling, single point]
Cc1ccc2nc3c(cc(C(=O)NCc4cccnc4)c(=N)n3C(C)C)c(=O)n2c1	10 µM [rising, partial curve]
Clc1cccc(Cl)c1Cn1cnc2c(N3CCCCCC3)ncnc21	2 µM [rising, full curve]
Cn1c(=O)c2nc(-c3ccccc3)oc2c2ccccc21	3.98 µM [rising, single point]
Cc1n[nH]c(C)c1CCc1nc2c3ccccc3nc(SCC(N)=O)n2n1	2 µM [rising, partial curve]
CC(Sc1ccccn1)C(=O)Nc1ccccc1 (stereo unspecified)	10 µM [falling, partial curve]
COCC(=O)Nc1cccc(Br)c1	0.00398 µM [falling, full curve, poor fit]
CC1=C(C(=O)OC2CCCCCCC2)C(c2cccc(O)c2)NC(=O)N1 (stereo unspecified)	0.398 µM [rising, partial curve]
O=C(COC(=O)C1CC1)c1c[nH]c2ccccc12	7.94 µM [falling, partial curve]
CN(CCNC(=O)c1cc2c(=O)n(C)c3ccccc3c2n1C)Cc1ccccc1	5.01 µM [rising, full curve]
CN1CCN(c2ncc3nc(-c4ccccc4)c(=O)n(CCc4ccccc4)c3n2)CC1	12.6 µM [rising, partial curve]
Cc1cc(C(=O)N(C)CC(=O)Nc2ccccc2C(F)(F)F)c(C)o1	5.01 µM [falling, single point]
COc1ccc(CNc2ncnc3ccc(-c4ccccc4C#N)cc23)c(OC)c1	2.51 µM [rising, full curve]
COc1cccc(NS(=O)(=O)c2ccc3[nH]cc(C(=O)NCCN4CCOCC4)c(=O)c3c2)c1	0.0251 µM [falling, full curve, poor fit]
COCCn1c(=O)c(-c2cccs2)nc2cnc(OCc3ccccc3)nc21	3.16 µM [rising, partial curve]
Cc1[nH]c(C)c(C(=O)O)c1CNC1CCCCC1C (stereo unspecified)	0.0794 µM [falling, partial curve]

Single entries from the results shown.
For AC50, `COc1ccc(C(O)P(=O)(O)CCc2ccccc2)cc1` (stereo unspecified) is listed with 0.00398 µM [falling, full curve, poor fit]
For AC50, `CC(C)(C)c1csc(N(CCC#N)CCC#N)n1` is listed with 0.0631 µM [falling, full curve, poor fit]
